Values from PubChem BioAssay AID1159578 (Peter MacCallum Cancer Centre, 2015).
Here is one part, drawn at random, of about 18,000 deposited reagents. Of all reagents, about 1,030 (5.7%) got an active call. 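Inactive calls also include pools with fewer than 3300 nuclei, whose migration was not assessed.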 Raw values are not corrected between plates. Further read-outs or replicates are left out here.

Test: 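siRNA pools altering how lymphatic endothelial cells close a scratch wound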 (primary screen)
Cell system: human lymphatic endothelial cells
Reagents: siRNA pool against human genes, 40 nM
Duration: 48 h after transfection
Measurement: 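Cells stained with dye and imaged after a scratch; covered wound area and nuclei counted, duplicates averaged, migration set against mock wells and turned into a robust z-score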
Scale: migration robust z-score: higher = faster migration into the scratch; nuclei per well: higher = more cells in the well
Rule for the call: 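Pools averaging fewer than 3300 nuclei are never called; remaining pools count as changed when migration robust z lies outside -2 to 2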
Calls: active = migration changed; inactive = no migration change, or too few cells

gene | migration robust z-score | migration class with cell-count check | nuclei per well, duplicate mean | activity call
TRAPPC12 (GeneID 51112) | -0.16 | migration z between -2 and 2; enough cells | 5836 | inactive
EMC6 (GeneID 83460) | 1.16 | migration z between -2 and 2; enough cells | 5772 | inactive
TMPRSS11E (GeneID 28983) | 0.31 | migration z between -2 and 2; enough cells | 4728 | inactive
SLC2A6 (GeneID 11182) | 1.68 | migration z between -2 and 2; enough cells | 4713 | inactive
PPIP5K2 (GeneID 23262) | -1.35 | migration z between -2 and 2; enough cells | 5419 | inactive
TAS1R3 (GeneID 83756) | 0.42 | migration z between -2 and 2; enough cells | 4772 | inactive
USP11 (GeneID 8237) | 0.91 | migration z between -2 and 2; enough cells | 5336 | inactive
GADL1 (GeneID 339896) | 0.2 | migration z between -2 and 2; enough cells | 6274 | inactive
FABP7 (GeneID 2173) | 0.36 | migration z between -2 and 2; enough cells | 5168 | inactive
UBAP1 (GeneID 51271) | -1.12 | migration z between -2 and 2; enough cells | 4915 | inactive
C1QBP (GeneID 708) | 0.38 | migration z between -2 and 2; enough cells | 5688 | inactive
MSMO1 (GeneID 6307) | 0.86 | migration z between -2 and 2; enough cells | 6710 | inactive
CXCR5 (GeneID 643) | 0.52 | migration z between -2 and 2; enough cells | 6454 | inactive
LINS1 (GeneID 55180) | 0.09 | migration z between -2 and 2; enough cells | 6267 | inactive
REEP5 (GeneID 7905) | -0.07 | under 3300 nuclei; migration not judged | 3272 | inactive
NALF2 (GeneID 27112) | -0.26 | migration z between -2 and 2; enough cells | 6000 | inactive
TRPA1 (GeneID 8989) | -1.32 | migration z between -2 and 2; enough cells | 4664 | inactive
TUBB7P (GeneID 56604) | -1.4 | migration z between -2 and 2; enough cells | 5414 | inactive
RABEPK (GeneID 10244) | -1.84 | migration z between -2 and 2; enough cells | 4027 | inactive
FRMD3 (GeneID 257019) | -0.09 | migration z between -2 and 2; enough cells | 4082 | inactive
SLC35E2A (GeneID 9906) | -2.05 | migration z below -2; enough cells | 4761 | active
ZBTB49 (GeneID 166793) | 0.44 | migration z between -2 and 2; enough cells | 5662 | inactive
GPR84 (GeneID 53831) | -3.17 | migration z below -2; enough cells | 5370 | active
DHDH (GeneID 27294) | -0.26 | migration z between -2 and 2; enough cells | 4702 | inactive
C6orf163 (GeneID 206412) | -0.48 | migration z between -2 and 2; enough cells | 4584 | inactive
POLR2L (GeneID 5441) | -0.29 | migration z between -2 and 2; enough cells | 4805 | inactive
CCSER1 (GeneID 401145) | -0.64 | migration z between -2 and 2; enough cells | 5666 | inactive
CKAP2 (GeneID 26586) | 0.26 | migration z between -2 and 2; enough cells | 5304 | inactive
UQCC3 (GeneID 790955) | -1.29 | migration z between -2 and 2; enough cells | 5778 | inactive
MRPL50 (GeneID 54534) | 0.34 | migration z between -2 and 2; enough cells | 5174 | inactive
TBC1D15 (GeneID 64786) | 1.71 | migration z between -2 and 2; enough cells | 6659 | inactive
DOCK10 (GeneID 55619) | -1.52 | migration z between -2 and 2; enough cells | 4646 | inactive
POSTN (GeneID 10631) | -0.96 | migration z between -2 and 2; enough cells | 6182 | inactive
CCN1 (GeneID 3491) | -1.2 | migration z between -2 and 2; enough cells | 5764 | inactive
FAM9A (GeneID 171482) | -0.57 | migration z between -2 and 2; enough cells | 4692 | inactive
OR2AK2 (GeneID 391191) | 2.06 | migration z above 2; enough cells | 5936 | active
RNF113B (GeneID 140432) | 0.1 | migration z between -2 and 2; enough cells | 4034 | inactive
U2AF2 (GeneID 11338) | -0.14 | migration z between -2 and 2; enough cells | 4884 | inactive
WFDC10A (GeneID 140832) | -1.47 | migration z between -2 and 2; enough cells | 5386 | inactive
